{"source": "PubChem BioAssay AID1117269 (University of Michigan, 2014)", "screen": "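Kinases whose silencing alters a TGF-beta responsive luciferase reporter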 (primary screen)", "system": "human A549 lung cancer and 1833 breast cancer (MDA-MB-231-derived) cell lines carrying a stable BTR luciferase reporter", "knock-down reagent": "siRNA pool against human genes", "duration": "72 h after transfection, then 1 h TGF-beta before the read", "treatment": "TGF-beta 10 ng/mL added one hour before luciferin and read-out", "read-out": "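Live-cell BTR luciferase signal at 72 h after transfection and 1 h of TGF-beta at 10 ng/mL, fold versus scrambled siRNA, triplicate mean for each line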", "reading the numbers": "fold over scrambled siRNA, A549 and fold over scrambled siRNA, 1833: higher = more reporter light, weaker TGF-beta receptor signalling", "rule for the call": "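Hit in either line counts as active; per-line hits lie above an upper limit from quartiles of averaged log fold values, in plate and screen-wide analyses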", "meaning of the calls": "active = hit in at least one line; inactive = hit in neither line", "note": "The whole screen tested 714 reagents; below is an unselected part. 49 of all reagents (6.9%) were called active. 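Active means a hit in at least one line; per-line hit columns show which; some siRNA pools appear more than once.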 Not stated in the record: the amount of reagent."}
{"gene": "AK4 (adenylate kinase 4)", "fold over scrambled siRNA, A549": 2.68, "fold over scrambled siRNA, 1833": 2.73, "hit in A549": "not a hit in A549", "hit in 1833": "not a hit in 1833", "activity call": "inactive"}
{"gene": "PSTK (phosphoseryl-tRNA kinase)", "fold over scrambled siRNA, A549": 1.43, "fold over scrambled siRNA, 1833": 2.38, "hit in A549": "not a hit in A549", "hit in 1833": "not a hit in 1833", "activity call": "inactive"}
{"gene": "EPHB2 (EPH receptor B2)", "fold over scrambled siRNA, A549": 0.95, "fold over scrambled siRNA, 1833": 4.1, "hit in A549": "not a hit in A549", "hit in 1833": "not a hit in 1833", "activity call": "inactive"}
{"gene": "MKNK1 (MAPK interacting serine/threonine kinase 1)", "fold over scrambled siRNA, A549": 1.98, "fold over scrambled siRNA, 1833": 1.62, "hit in A549": "not a hit in A549", "hit in 1833": "not a hit in 1833", "activity call": "inactive"}
{"gene": "EPHA10 (EPH receptor A10)", "fold over scrambled siRNA, A549": 2.68, "fold over scrambled siRNA, 1833": 4.93, "hit in A549": "not a hit in A549", "hit in 1833": "not a hit in 1833", "activity call": "inactive"}
{"gene": "FRK (fyn related Src family tyrosine kinase)", "fold over scrambled siRNA, A549": 5.33, "fold over scrambled siRNA, 1833": 6.37, "hit in A549": "not a hit in A549", "hit in 1833": "not a hit in 1833", "activity call": "inactive"}
{"gene": "DGKH (diacylglycerol kinase eta)", "fold over scrambled siRNA, A549": 1.19, "fold over scrambled siRNA, 1833": 2.67, "hit in A549": "not a hit in A549", "hit in 1833": "not a hit in 1833", "activity call": "inactive"}
{"gene": "SPEG (striated muscle enriched protein kinase)", "fold over scrambled siRNA, A549": 2.57, "fold over scrambled siRNA, 1833": 3.27, "hit in A549": "not a hit in A549", "hit in 1833": "not a hit in 1833", "activity call": "inactive"}
{"gene": "TAOK3 (TAO kinase 3)", "fold over scrambled siRNA, A549": 3.6, "fold over scrambled siRNA, 1833": 3.22, "hit in A549": "not a hit in A549", "hit in 1833": "not a hit in 1833", "activity call": "inactive"}
{"gene": "GRK1 (G protein-coupled receptor kinase 1)", "fold over scrambled siRNA, A549": 4.9, "fold over scrambled siRNA, 1833": 45.2, "hit in A549": "not a hit in A549", "hit in 1833": "hit in 1833"}
{"gene": "KHK (ketohexokinase)", "fold over scrambled siRNA, A549": 2, "fold over scrambled siRNA, 1833": 2.57, "hit in A549": "not a hit in A549", "hit in 1833": "not a hit in 1833", "activity call": "inactive"}
{"gene": "MAP3K7 (mitogen-activated protein kinase kinase kinase 7)", "fold over scrambled siRNA, A549": 3.52, "fold over scrambled siRNA, 1833": 5.57, "hit in A549": "not a hit in A549", "hit in 1833": "not a hit in 1833", "activity call": "inactive"}
